Results from patent US11911439B2, “Beta-casein A2 and prevention of inflammation of the bowel” (THE A2 MILK COMPANY LIMITED, priority 2013, dated 2024).

What was measured:
SH-SY5Y neuronal cells = assay: Intracellular cysteine, GSH and methylation metabolites by HPLC; type: cell-based, human
Method: Briefly, SH-SY5Y neuronal cells were grown to confluence in α-MEM. Media was aspirated and the cells were washed twice with 1 mL of ice cold HBSS. HBSS was aspirated and 0.6 mL ice cold dH2O was added to the cells. The cells were scraped from the flask/dish and suspended in dH2O. The cell suspension was sonicated for 15 s on ice and 100 μL of the suspension was used to determine the protein content. The remaining lysate was added to a microcentrifuge tube and an equal volume of 0.4 N perchloric acid was added, followed by incubation on ice for 5 min. Samples were centrifuged at 5,000×g and the supernatant transferred to new microcentrifuge tubes. 100 μL of sample was added to a conical micro-autosampler vial and kept at 4° C. in the autosampler cooling tray. 10 μL of this sample was injected into the HPLC system.
The separation of redox and methylation pathway metabolites was accomplished using an Agilent Eclipse XDB-C8 analytical column (3×150 mm; 3.5 μm) and an Agilent Eclipse XDB-C8 (4.6×12.5 mm; 5 μm) guard column. Two mobile phases were used: Mobile Phase A was 0% acetonitrile, 25 mM sodium phosphate, 1.4 mM 1-octanesulfonic acid, adjusted to pH 2.65 with phosphoric acid. Mobile Phase B was 50% acetonitrile. […] Sample concentrations were determined from the peak areas of metabolites using standard calibration curves and ESA-supplied HPLC software. […]

[1] = test system: SH-SY5Y human neuronal cells; assay: cells
Method: (§1) Pre-treatment in cells was performed for different time points for 30 min, 4, 24 and 48 h as described previously (Trivedi M., et al.; Mol. Pharm., 2014). Briefly, SH-SY5Y human neuronal cells and Caco-2 Gut epithelial cells were plated in six-well plates and were pretreated with drugs and incubated for various times prior to measuring uptake. Media were aspirated and cells were washed with 600 μL of HBSS at 37° C. Non-radioactive HBSS was aspirated, replaced with 600 μL of 37° C. HBSS containing [^35S]-cysteine, (1 μCi/1 mL), 10 μM unlabelled cysteine and 100 μM DTT, and the cells were incubated for 5 min. The [^35S]-cysteine/HBSS mixture was aspirated and treatment was terminated by two washes with ice-cold HBSS. Cells were then lysed with 600 μL of dH2O, scraped, collected in 1.5 mL microcentrifuge tubes, and sonicated for 10 s. 100 μL of each sample was aliquoted for protein assay. 200 μL of each sample (in triplicate) was aliquoted into scintillation vials with 4 mL of scintillation fluid, vortexed, and counted for radioactivity, normalized against protein content. […] Each * symbol in these Figures indicates a statistically significant difference (p<0.05) compared against the untreated control, and each #symbol indicates a statistically significant difference (p<0.005) compared against the untreated control.

[2] = test system: Caco-2 Gut epithelial cells; assay: cells; details: Homo sapiens, Caco-2, read-out: IC50 inhibition of cysteine uptake
Method: as §1

CN1CC[C@]23c4c5ccc(O)c4O[C@H]2[C@@H](O)C=C[C@H]3[C@H]1C5 [morphine]
GSH levels (SH-SY5Y neuronal cells; 30 min, 4 h, 24 h): time-dependent decreases | GSH/GSSG ratio (redox status) (SH-SY5Y neuronal cells; over time): decreased | IC50 ([1]; Homo sapiens, SH-SY5Y, read-out: IC50 inhibition of cysteine uptake): 0.16 nM | receptor mediation of cysteine uptake inhibition ([1]; blockade by selective μ-antagonist (CTAP), not by delta antagonist (NTI)): μ-opioid receptor mediated | time at which inhibition of cysteine uptake was fully developed ([1]; neuronal cells and GI epithelial cells (FIG. 6)): 30 min | IC50 [2]: 6.38 nM
